Results as given in PubChem BioAssay AID504810 (National Center for Advancing Translational Sciences (NCATS), 2011).
Hit rate of the full screen: of about 330,000 compounds, about 670 (0.2%) were called active. Inconclusive results, whose numbers are uncertain, are shown with a selection of clear calls.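 Rule for the calls: active = activity change below a set negative limit, meaning inhibition stronger than a set level (cut at about -70% in these data); inconclusive = activity change between two set negative limits; inactive = the rest.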

The chains behind the UniProt entries cited, without tags or fusion partners.
UniProt P16473, whole entry, looked up: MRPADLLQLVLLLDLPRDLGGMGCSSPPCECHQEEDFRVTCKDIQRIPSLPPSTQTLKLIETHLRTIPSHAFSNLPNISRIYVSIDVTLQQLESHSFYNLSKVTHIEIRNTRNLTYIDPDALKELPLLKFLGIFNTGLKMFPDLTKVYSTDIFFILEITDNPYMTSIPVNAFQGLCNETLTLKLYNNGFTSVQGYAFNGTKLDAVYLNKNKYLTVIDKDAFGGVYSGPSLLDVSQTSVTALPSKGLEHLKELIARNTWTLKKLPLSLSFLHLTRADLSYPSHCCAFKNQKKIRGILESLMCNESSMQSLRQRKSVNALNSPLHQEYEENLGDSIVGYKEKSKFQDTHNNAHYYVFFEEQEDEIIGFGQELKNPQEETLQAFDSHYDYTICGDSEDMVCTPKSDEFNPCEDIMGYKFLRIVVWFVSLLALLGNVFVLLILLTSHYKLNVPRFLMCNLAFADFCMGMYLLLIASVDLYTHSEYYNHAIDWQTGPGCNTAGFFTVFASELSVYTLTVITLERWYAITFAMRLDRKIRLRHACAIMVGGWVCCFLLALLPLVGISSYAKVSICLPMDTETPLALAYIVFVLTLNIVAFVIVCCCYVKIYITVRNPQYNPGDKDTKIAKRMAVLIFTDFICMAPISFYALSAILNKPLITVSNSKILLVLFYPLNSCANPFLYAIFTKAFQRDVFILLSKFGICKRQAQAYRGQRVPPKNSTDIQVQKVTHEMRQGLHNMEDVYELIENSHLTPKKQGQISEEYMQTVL

biological target: Thyrotropin receptor (Homo sapiens) (UniProt P16473); assay: Antagonists of the Thyroid Stimulating Hormone Receptor: HTS campaign; details: TSHR-expressing cells, TSH-stimulated cAMP HTRF, 2 h; at 11.5 µM; active compounds read low
Procedure, shortened: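 TSHR-expressing cells, 200/well, pre-treated with compound, then stimulated with EC80 TSH (4nM final) for 2 hours at 37 deg C. cAMP measured by competitive HTRF: anti-cAMP cryptate antibody in lysis buffer plus cAMP-d2, read after 30 minutes at room temperature.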
% is set by controls: 0 for no effect and ±100 for the full control effect.

Row | SMILES | activity change, negative = inhibition
1 | COc1ccc(C)cc1NC(=O)CSCc1ccccc1C | inconclusive: -52.7%
2 | CC(CCc1ccc(O)cc1)NCCC(c1ccccc1)c1ccccc1 (centres undefined) | inactive: 20.1%
3 | O=C(COc1ccc(C(=O)c2ccccc2)cc1)Nc1cccnc1 | inconclusive: -51.1%
4 | O=C(Nc1nc2ccccc2s1)C1CCN(S(=O)(=O)c2cc([N+](=O)[O-])ccc2Cl)CC1 | inconclusive: -57.4%
5 | O=C(Nc1cccc(S(=O)(=O)NC2=NCCC2)c1)c1ccccc1OC(F)F | inactive: -7.45%
6 | N#CC1=C(N)Oc2cc(O)c(Cl)cc2C1c1cccnc1 (centres undefined) | inconclusive: -54.7%
7 | Cc1cc2cc(CCNC(=O)c3ccc(S(=O)(=O)N4CCCC4)cc3)c(=O)[nH]c2cc1C | active: -76.7%
8 | CCn1c(COc2ccc(=O)n(-c3ccccc3)n2)nnc1SCc1ccc(C)cc1 | inconclusive: -52%
9 | CN(Cc1ccco1)S(=O)(=O)c1nnc(NC(=O)c2cccc(Cl)c2)s1 | inconclusive: -54.1%
10 | COc1ccccc1-c1nc(-c2cccc(C)c2)no1 | inactive: -18.3%
11 | O=C(Cc1ccccc1)Nc1cccc(-c2nnc(-c3ccco3)o2)c1 | inconclusive: -55.4%
12 | COc1ccccc1C(=O)NC(=S)Nc1ccc(N2CCN(C(=O)c3ccco3)CC2)cc1 | inactive: -30.1%
13 | CCOc1ccc2oc(C(=O)OCC(=O)N3C(C)CCCC3C)c(C)c2c1 (centres undefined) | active: -78.9%
14 | Cc1cc(NCc2ccccn2)n2ncc(-c3ccc(Cl)cc3)c2n1 | inactive: -12.8%
15 | COc1cc(/C=C2\SC(=S)NC2=O)ccc1OS(=O)(=O)c1ccccc1 | active: -74.2%
16 | CCOC(=O)c1c(-c2ccc(OC)cc2)csc1NC(=O)CCN1CCOCC1 | inactive: 5.83%
17 | CC1Cc2cc(-c3csc(NC(=O)Cc4ccccc4)n3)ccc2N1S(C)(=O)=O (centres undefined) | inconclusive: -55.7%
18 | CCOC(=O)CCS(=O)(=O)c1nc(-c2ccccc2)cc(C(F)(F)F)n1 | inconclusive: -57.9%
19 | O=[N+]([O-])c1cc(Br)c(O)c(/C=N/Nc2nc3ccccc3s2)c1 | active: -87.3%
20 | COc1ccc(NC(=S)N(CCCN2CCOCC2)Cc2cn(C)c3ccccc23)cc1 | inactive: 4.31%
21 | COc1ccc(NS(=O)(=O)c2cc(NC(=O)/C=C/c3cc(OC)c(OC)c(OC)c3)ccc2N2CCCCC2)cc1 | inconclusive: -57%
22 | CC(OC(=O)c1ccc(Cl)c(S(=O)(=O)N2CCCC2)c1)C(=O)NC1CCCCC1C (centres undefined) | inconclusive: -52.6%
23 | COc1cc(C(=O)NCCNC(=O)c2cnccn2)cc(OC)c1OC | active: -81.8%
24 | OCC1OC(Oc2cccc3ccccc23)C(O)C(O)C1O (centres undefined) | inconclusive: -55.8%
25 | Cc1[nH]n(C)c(=O)c1C(=O)c1c(-c2c(Cl)cccc2Cl)noc1C | inconclusive: -69.3%
26 | Cc1ccc(S(=O)(=O)CCC(=O)c2cccc([N+](=O)[O-])c2)cc1 | active: -105%
27 | CCCCCCSc1ccc([C@H]2N[C@@](C)(C(=O)OC)[C@H]3C(=O)N(C)C(=O)[C@@H]23)cc1 | inconclusive: -52.4%

Row | SMILES | activity change, negative = inhibition
28 | Cc1onc(C(=O)N2CCN(C(c3ccccc3)c3ccccc3)CC2)c1[N+](=O)[O-] | inactive: -1.14%
29 | Cc1csc(NC(=O)c2cccc(Cn3nc(C)c(Br)c3C)c2)n1 | inconclusive: -67.7%
30 | Cc1cccc(Nc2nnc(SCC(=O)Nc3ccccc3[N+](=O)[O-])s2)c1C | inconclusive: -51.2%
31 | CCOc1ccccc1NC(=O)CCc1c(C)nn(-c2ccc(N3CCCCC3)nn2)c1C | inactive: 7.14%
32 | Cc1cc(-n2c(C)cc(C(=O)CSc3[nH]c(=O)cc(C(F)(F)F)c3C#N)c2C)no1 | inconclusive: -63.5%
33 | CCCC(=O)NC(c1cccs1)c1cc(Cl)c2cccnc2c1O (centres undefined) | inactive: 9.01%
34 | O=C(COc1ccccc1Cl)N1CCNC1=O | inactive: 16.4%
35 | O=C(Nc1ccc(Oc2ccc(Cl)cc2)c(Cl)c1)c1cc(I)cc(I)c1O | active: -93.8%
36 | O=C(CSc1ccccn1)N/N=C/C=C/c1ccccc1 | inactive: 3.12%
37 | Cc1ccccc1C(=O)N1CCN(c2ccc(NC(=O)CSc3ccc(Cl)cc3)cc2)CC1 | inconclusive: -52.5%
38 | CCCCCCc1cc2cc(-c3nnc(-c4ccccc4OC)o3)c(=O)oc2cc1O | inconclusive: -53.3%
39 | CCCCN(CCCC)C(=S)N/N=C/c1c(C)[nH]n(-c2ccccc2)c1=O | inactive: -6.31%
40 | O=S(=O)(NCc1ccccc1)c1ccccc1NCCc1ccccc1 | inconclusive: -66.6%
41 | O=C1S/C(=C\c2ccc(O)c([N+](=O)[O-])c2)C(=O)N1Cc1cccc([N+](=O)[O-])c1 | inconclusive: -57.1%
42 | Cc1ccc([C@@H]2CC=C(C(=O)O)[C@H](c3cccc(Cl)c3)N2S(=O)(=O)c2ccc(C)cc2)cc1 | inconclusive: -53.5%
43 | Cc1nc(N/N=C/c2ccccn2)sc1C | inactive: -12.2%
44 | CC(C)C[C@H](N)c1nnc(S(=O)(=O)Cc2ccc(F)cc2)o1 | inconclusive: -52%
45 | Cc1nc(C(=O)N2CCc3c([nH]c4ccccc34)C2c2ccccn2)cs1 (centres undefined) | inactive: 6.01%
46 | COc1ccc(C(=O)Nc2ccc(Cl)c(S(=O)(=O)Nc3ccccc3OC)c2)cc1 | inconclusive: -58.9%
47 | O=C1NC(=S)S/C1=C\c1ccc(SCc2ccco2)o1 | inconclusive: -58%
48 | CC(C)CN(Cc1cc(=O)oc2cc(-c3ccccc3)c(O)cc12)CC(C)C | inconclusive: -62.7%
49 | O=C(OCC(=O)N1CCOCC1)c1cccc(F)c1 | inactive: 25.2%
50 | COC(=O)c1ccc(NC(=O)c2nc(S(=O)(=O)Cc3cccc(C)c3)ncc2Cl)cc1 | inconclusive: -63.5%
51 | O=C(CSc1n[nH]c(=O)n1C1CC1)c1ccc2c(c1)OCCO2 | inconclusive: -51.5%
52 | O=C(CSc1ncnc2sc3c(c12)CCCC3)c1ccco1 | inconclusive: -54.8%
53 | CC(=O)Oc1ccc2nc(/C=C/c3ccccc3)oc(=O)c2c1 | active: -78.3%
54 | Cc1cc(-c2ccc(N=Nc3c(S(=O)(=O)O)cc4cc(S(=O)(=O)O)cc(N)c4c3O)c(C)c2)ccc1N=Nc1c(S(=O)(=O)O)cc2cc(S(=O)(=O)O)cc(N)c2c1O | active: -155%

Three structures already listed, sorted by molar mass, ascending:
Row | SMILES | activity change, negative = inhibition
49 | O=C(OCC(=O)N1CCOCC1)c1cccc(F)c1 | inactive: 25.2%
52 | O=C(CSc1ncnc2sc3c(c12)CCCC3)c1ccco1 | inconclusive: -54.8%
37 | Cc1ccccc1C(=O)N1CCN(c2ccc(NC(=O)CSc3ccc(Cl)cc3)cc2)CC1 | inconclusive: -52.5%
